From PMC5996148
Where “and” joins values, the source holds several entries; their conditions need not be identical. Equal entries are not always repeated. The list shows a part of the results. For some of these results: Construct or isoform of the protein are uncertain.

By UniProt entry, the sequences of proteins in these tests, tags left out.
UniProt P14625, whole entry: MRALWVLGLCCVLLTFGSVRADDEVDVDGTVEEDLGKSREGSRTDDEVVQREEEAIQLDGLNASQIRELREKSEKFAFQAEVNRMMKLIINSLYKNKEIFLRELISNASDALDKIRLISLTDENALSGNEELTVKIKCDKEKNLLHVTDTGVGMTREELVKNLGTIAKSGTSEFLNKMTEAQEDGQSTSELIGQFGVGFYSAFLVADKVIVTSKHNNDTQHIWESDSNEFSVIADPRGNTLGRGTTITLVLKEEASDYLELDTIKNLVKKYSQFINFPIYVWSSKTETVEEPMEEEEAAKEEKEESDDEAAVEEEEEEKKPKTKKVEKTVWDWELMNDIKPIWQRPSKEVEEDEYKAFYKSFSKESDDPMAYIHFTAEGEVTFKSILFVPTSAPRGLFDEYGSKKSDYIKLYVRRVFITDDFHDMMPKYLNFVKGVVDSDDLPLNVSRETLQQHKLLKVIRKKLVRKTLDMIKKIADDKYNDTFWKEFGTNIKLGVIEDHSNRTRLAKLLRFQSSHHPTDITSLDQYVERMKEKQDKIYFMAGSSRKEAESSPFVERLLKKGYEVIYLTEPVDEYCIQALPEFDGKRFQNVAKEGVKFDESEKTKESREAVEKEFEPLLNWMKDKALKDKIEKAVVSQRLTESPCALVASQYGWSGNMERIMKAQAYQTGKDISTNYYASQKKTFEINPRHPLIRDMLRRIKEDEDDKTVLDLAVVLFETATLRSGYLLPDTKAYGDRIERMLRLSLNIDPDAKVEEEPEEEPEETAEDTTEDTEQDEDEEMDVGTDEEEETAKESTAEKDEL

What was measured:
Experiment in all cases: protein microarray (ProtoArray v5.0), streptavidin-Alexa Fluor 647
Settings in all cases: 3'-biotin; 20 mM Tris (pH 7.5), 5 mM MgCl2, 100 mM KCl, 0.1% Tween-20, A/T-rich and random oligonucleotide blockers; temperature not stated; high values mean tight binding
HP1BP3 = biological target: T1, HP1BP3 (UniProt Q5SSJ5)
T1 sequence: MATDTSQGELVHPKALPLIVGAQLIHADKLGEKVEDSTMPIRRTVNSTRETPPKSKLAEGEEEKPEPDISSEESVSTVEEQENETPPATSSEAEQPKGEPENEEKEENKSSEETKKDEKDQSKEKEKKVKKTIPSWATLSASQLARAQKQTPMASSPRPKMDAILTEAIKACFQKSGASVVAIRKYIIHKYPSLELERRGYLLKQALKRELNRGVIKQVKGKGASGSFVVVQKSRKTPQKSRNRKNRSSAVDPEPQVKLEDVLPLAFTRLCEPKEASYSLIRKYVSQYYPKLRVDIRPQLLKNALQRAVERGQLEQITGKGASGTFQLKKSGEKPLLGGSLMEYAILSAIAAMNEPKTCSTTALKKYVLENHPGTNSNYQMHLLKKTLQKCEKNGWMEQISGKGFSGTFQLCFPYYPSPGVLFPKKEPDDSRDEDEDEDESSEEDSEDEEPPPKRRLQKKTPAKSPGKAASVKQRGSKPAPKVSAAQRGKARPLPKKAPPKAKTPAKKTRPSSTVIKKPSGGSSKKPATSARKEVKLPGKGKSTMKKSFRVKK

HPCAL1 (human) = system: HPCAL1 (human)
HPGD (human) = system: HPGD (human)
HS2ST1 (human) = system: HS2ST1 (human)
HS3ST1 (human) = system: HS3ST1 (human)
HSBP1 (human) = system: HSBP1 (human)
HSD11B1 (human) = system: HSD11B1 (human)
HSD3B2 (human) = system: HSD3B2 (human)
HSP90B1 = HSP90B1 (UniProt P14625)
HSPA4 (human) = system: HSPA4 (human)

GGGGACAGGGGTATGGGGAGGGG [G4-3 biotinylated (CtG)]
binding signal (HP1BP3): 6.82 z-score | binding signal (HPCAL1 (human)): -0.336 z-score | binding signal (HPGD (human)): -0.328 z-score | binding signal (HS2ST1 (human)): -0.318 z-score | binding signal (HS3ST1 (human)): -0.304 z-score and -0.33 z-score | binding signal (HSBP1 (human)): -0.322 z-score | binding signal (HSD11B1 (human)): -0.318 z-score | binding signal (HSD3B2 (human)): -0.322 z-score | binding signal (HSP90B1): -0.303 z-score | binding signal (HSPA4 (human)): -0.299 z-score
